# Results are given in words; binding and its absence hold for the method and conditions named. Binding seen in cells or lysates may run through a third protein. Some entries that bind do so weakly or less than the wild type.
# The chains behind the UniProt entries cited, without tags or fusion partners.
# UniProt Q8I5I8: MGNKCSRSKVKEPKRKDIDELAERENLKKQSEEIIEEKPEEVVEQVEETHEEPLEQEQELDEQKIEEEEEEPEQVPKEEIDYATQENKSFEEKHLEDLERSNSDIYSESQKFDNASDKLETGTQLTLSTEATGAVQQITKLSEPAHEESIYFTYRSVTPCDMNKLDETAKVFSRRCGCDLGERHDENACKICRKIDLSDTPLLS
# UniProt Q8I4W8: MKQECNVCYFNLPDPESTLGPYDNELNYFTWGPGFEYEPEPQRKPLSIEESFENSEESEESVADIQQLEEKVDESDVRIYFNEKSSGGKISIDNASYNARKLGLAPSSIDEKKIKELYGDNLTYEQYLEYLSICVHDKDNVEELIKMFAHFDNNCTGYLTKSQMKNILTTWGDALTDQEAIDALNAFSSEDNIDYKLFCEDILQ
# Target: PfGAP45-GFP (Plasmodium falciparum Glideosome Associated Protein 45 fused with Green Fluorescent Protein at its C-terminus), wild type (P. falciparum (3D7)) (UniProt Q8I5I8)
# Assay: co-IP; anti-GFP immunoprecipitation of GAP45-GFP from transgenic parasite lysate (lysis buffer with 1% Triton X-100, 100 mM NaCl, pH 7.5, 4°C; protein A+G sepharose); western blot with anti-MTIP antibody
substance,measurement,value
Myosin Tail Interacting Protein (PfMTIP) (from UniProt Q8I4W8 1-204),binding,binds

# Reference: PMC3338798
